{"source": "PubChem BioAssay AID1159584 (Peter MacCallum Cancer Centre, 2016)", "assay": "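Genes whose loss is lethal only together with E-cadherin loss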 (primary screen)", "cell system": "human MCF10A breast epithelial cells, parental and CDH1-null", "knock-down reagent": "siRNA against human genes", "measured": "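ATP luminescence (CellTiter-Glo) viability per line relative to mean mock wells over all plates, and the ratio of CDH1-null to parental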", "direction": "CDH1-null / parental viability ratio: higher = CDH1-null cells survive relatively better than parental; CDH1-null viability vs mock: higher = more viable CDH1-null cells", "note": "The deposit covers about 18,000 reagents; shown is a part drawn at random. Not all columns of the deposit are shown. The record does not give: the amount of reagent, the time to read-out."}
{"gene symbol":"MYH7 (myosin heavy chain 7)","CDH1-null / parental viability ratio":1.09,"CDH1-null viability vs mock (fraction of mock)":0.99}
{"gene symbol":"SEMA5A (semaphorin 5A)","CDH1-null / parental viability ratio":1.26,"CDH1-null viability vs mock (fraction of mock)":0.48}
{"gene symbol":"PARM1 (prostate androgen-regulated mucin-like protein 1)","CDH1-null / parental viability ratio":1.27,"CDH1-null viability vs mock (fraction of mock)":1.12}
{"gene symbol":"FPGS (folylpolyglutamate synthase)","CDH1-null / parental viability ratio":0.71,"CDH1-null viability vs mock (fraction of mock)":0.34}
{"gene symbol":"MYCBP (MYC binding protein)","CDH1-null / parental viability ratio":1.06,"CDH1-null viability vs mock (fraction of mock)":0.83}
{"gene symbol":"RPS6KA3 (ribosomal protein S6 kinase A3)","CDH1-null / parental viability ratio":0.88,"CDH1-null viability vs mock (fraction of mock)":0.84}
{"gene symbol":"EDARADD (EDAR associated via death domain)","CDH1-null / parental viability ratio":1.05,"CDH1-null viability vs mock (fraction of mock)":0.77}
{"gene symbol":"EAF1 (ELL associated factor 1)","CDH1-null / parental viability ratio":0.97,"CDH1-null viability vs mock (fraction of mock)":0.57}
{"gene symbol":"FBLN1 (fibulin 1)","CDH1-null / parental viability ratio":1.36,"CDH1-null viability vs mock (fraction of mock)":0.72}
{"gene symbol":"NCBP3 (nuclear cap binding subunit 3)","CDH1-null / parental viability ratio":0.88,"CDH1-null viability vs mock (fraction of mock)":0.9}
{"gene symbol":"B4GALT1 (beta-1,4-galactosyltransferase 1)","CDH1-null / parental viability ratio":1.08,"CDH1-null viability vs mock (fraction of mock)":0.8}
{"gene symbol":"ABLIM1 (actin binding LIM protein 1)","CDH1-null / parental viability ratio":0.91,"CDH1-null viability vs mock (fraction of mock)":0.6}
{"gene symbol":"KCNMA1 (potassium calcium-activated channel subfamily M alpha 1)","CDH1-null / parental viability ratio":1.11,"CDH1-null viability vs mock (fraction of mock)":0.98}
{"gene symbol":"CYP7B1 (cytochrome P450 family 7 subfamily B member 1)","CDH1-null / parental viability ratio":1.29,"CDH1-null viability vs mock (fraction of mock)":1.02}
{"gene symbol":"KAAG1 (kidney associated DCDC2 antisense RNA 1)","CDH1-null / parental viability ratio":0.9,"CDH1-null viability vs mock (fraction of mock)":0.54}
{"gene symbol":"GAP43 (growth associated protein 43)","CDH1-null / parental viability ratio":1.29,"CDH1-null viability vs mock (fraction of mock)":0.93}
{"gene symbol":"CLDN8 (claudin 8)","CDH1-null / parental viability ratio":1.17,"CDH1-null viability vs mock (fraction of mock)":0.97}
{"gene symbol":"HCN3","CDH1-null / parental viability ratio":1.26,"CDH1-null viability vs mock (fraction of mock)":0.98}
{"gene symbol":"PRTFDC1 (phosphoribosyl transferase domain containing 1)","CDH1-null / parental viability ratio":1,"CDH1-null viability vs mock (fraction of mock)":1.04}
{"gene symbol":"FADS2 (fatty acid desaturase 2)","CDH1-null / parental viability ratio":0.84,"CDH1-null viability vs mock (fraction of mock)":0.64}
{"gene symbol":"SLCO6A1","CDH1-null / parental viability ratio":0.99,"CDH1-null viability vs mock (fraction of mock)":1.04}
{"gene symbol":"MINAR1 (membrane integral NOTCH2 associated receptor 1)","CDH1-null / parental viability ratio":1.07,"CDH1-null viability vs mock (fraction of mock)":0.78}
{"gene symbol":"VWCE (von Willebrand factor C and EGF domains)","CDH1-null / parental viability ratio":0.85,"CDH1-null viability vs mock (fraction of mock)":0.88}
{"gene symbol":"SMR3A (submaxillary gland androgen regulated protein 3A)","CDH1-null / parental viability ratio":1.16,"CDH1-null viability vs mock (fraction of mock)":0.72}
{"gene symbol":"MPP2 (MAGUK p55 scaffold protein 2)","CDH1-null / parental viability ratio":0.81,"CDH1-null viability vs mock (fraction of mock)":0.55}
{"gene symbol":"RASGEF1C (RasGEF domain family member 1C)","CDH1-null / parental viability ratio":1.18,"CDH1-null viability vs mock (fraction of mock)":0.86}
{"gene symbol":"MCTS1 (MCTS1 re-initiation and release factor)","CDH1-null / parental viability ratio":0.9,"CDH1-null viability vs mock (fraction of mock)":0.9}
{"gene symbol":"COX7B2 (cytochrome c oxidase subunit 7B2)","CDH1-null / parental viability ratio":1.02,"CDH1-null viability vs mock (fraction of mock)":1}
{"gene symbol":"EIF2A (eukaryotic translation initiation factor 2A)","CDH1-null / parental viability ratio":0.89,"CDH1-null viability vs mock (fraction of mock)":0.72}
{"gene symbol":"LAMTOR2 (late endosomal/lysosomal adaptor, MAPK and MTOR activator 2)","CDH1-null / parental viability ratio":0.95,"CDH1-null viability vs mock (fraction of mock)":0.41}
{"gene symbol":"ATG7 (autophagy related 7)","CDH1-null / parental viability ratio":0.85,"CDH1-null viability vs mock (fraction of mock)":0.78}
{"gene symbol":"CLIC1 (CLIC family member 1)","CDH1-null / parental viability ratio":1.7,"CDH1-null viability vs mock (fraction of mock)":0.92}
{"gene symbol":"PSG5 (pregnancy specific beta-1-glycoprotein 5)","CDH1-null / parental viability ratio":1.03,"CDH1-null viability vs mock (fraction of mock)":1.27}
{"gene symbol":"LDHAL6B (lactate dehydrogenase A like 6B)","CDH1-null / parental viability ratio":1.06,"CDH1-null viability vs mock (fraction of mock)":0.87}
{"gene symbol":"RPS4X (ribosomal protein S4 X-linked)","CDH1-null / parental viability ratio":1.67,"CDH1-null viability vs mock (fraction of mock)":0.3}
{"gene symbol":"ADGRG3 (adhesion G protein-coupled receptor G3)","CDH1-null / parental viability ratio":0.93,"CDH1-null viability vs mock (fraction of mock)":0.7}
{"gene symbol":"EPX (eosinophil peroxidase)","CDH1-null / parental viability ratio":0.94,"CDH1-null viability vs mock (fraction of mock)":0.76}
{"gene symbol":"RIOX2 (ribosomal oxygenase 2)","CDH1-null / parental viability ratio":1.1,"CDH1-null viability vs mock (fraction of mock)":0.56}
{"gene symbol":"FAM110A (family with sequence similarity 110 member A)","CDH1-null / parental viability ratio":1.1,"CDH1-null viability vs mock (fraction of mock)":0.8}
{"gene symbol":"ZNF23 (zinc finger protein 23)","CDH1-null / parental viability ratio":1.06,"CDH1-null viability vs mock (fraction of mock)":0.7}
{"gene symbol":"SRPK3 (SRSF protein kinase 3)","CDH1-null / parental viability ratio":1.12,"CDH1-null viability vs mock (fraction of mock)":0.96}
{"gene symbol":"SLCO4C1","CDH1-null / parental viability ratio":0.9,"CDH1-null viability vs mock (fraction of mock)":0.76}
{"gene symbol":"OR4D2 (olfactory receptor family 4 subfamily D member 2)","CDH1-null / parental viability ratio":0.98,"CDH1-null viability vs mock (fraction of mock)":0.54}
{"gene symbol":"SEC24C (SEC24 homolog C, COPII component)","CDH1-null / parental viability ratio":1.07,"CDH1-null viability vs mock (fraction of mock)":0.88}
{"gene symbol":"EIF3K (eukaryotic translation initiation factor 3 subunit K)","CDH1-null / parental viability ratio":0.8,"CDH1-null viability vs mock (fraction of mock)":0.74}
